# In PMC8357683:
# No constants are given. Whether binding was seen depends on the method and setting. In cells and extracts the contact can be indirect. Some results given as binding are weak or reduced against the parent protein; the word gives no strength.
# Target: T1, NAD-dependent deacetylase sirtuin 2 (mouse (endogenous in heart tissue)) (UniProt Q8VDQ8)
# T1 sequence: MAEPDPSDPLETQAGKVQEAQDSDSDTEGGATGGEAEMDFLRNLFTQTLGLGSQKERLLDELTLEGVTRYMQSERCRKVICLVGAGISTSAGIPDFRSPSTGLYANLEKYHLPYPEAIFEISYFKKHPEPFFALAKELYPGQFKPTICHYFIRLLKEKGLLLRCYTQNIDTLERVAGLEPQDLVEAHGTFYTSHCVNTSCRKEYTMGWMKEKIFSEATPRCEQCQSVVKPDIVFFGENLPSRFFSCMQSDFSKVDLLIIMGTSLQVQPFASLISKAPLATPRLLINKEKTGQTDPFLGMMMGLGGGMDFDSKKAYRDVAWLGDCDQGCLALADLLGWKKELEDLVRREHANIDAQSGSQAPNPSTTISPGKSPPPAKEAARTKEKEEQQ
# Assay: co-IP; mouse heart tissue lysates (3 mg total protein per IP) incubated with primary antibody overnight at 4 °C, Protein G Dynabeads 6 h at 4 °C, one high salt wash and five washes with IP buffer, Western blot; anti-SIRT2 antibody with IgG control; hearts also from AAV-Scramble and AAV-LncHrt knock-down mice (knock-down promoted the interaction)
substance,measurement,value
cyclin-dependent kinase CDK5 (from UniProt P49615 1-292),binding,binds
